Data on 23 sequences can be found in the supplement of paper PMC10338343.

± gives the standard deviation. The entries are a selection whose mix differs from that of the whole data set. Many entries were measured with a wide error. Some of the results follow.

For assay [1], the system named is MIWI (PIWIL1) piRISC loaded with L1MC piRNA (30 nt). In words: pre-steady-state target cleavage rate (min^-1); higher = faster piRNA-guided slicing of the target. As to conditions: guide: L1MC piRNA 5'p-UAACUAAAUACUAUGCAAGCUGUAGGUCCU
An outline of the steps: (§1)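 Active affinity-purified piRISC (1 nM) loaded with one synthetic guide was mixed with a transcribed, DNA-blocked target RNA library (0.1 nM), with or without 500 nM GTSF1 partner protein, in HEPES–potassium acetate buffer at 33 °C for 0–8 or 0–960 min. Uncleaved targets were sequenced, normalised to depth and to weakly complementary targets, and pooled across three trials, with k3 capped at 0.0001 min^-1. The pre-steady-state cleavage rate was determined with a burst-and-steady-state fit.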

For assay [2], the system named is EfPiwi piRISC loaded with L1MC piRNA (26 nt). In words: pre-steady-state target cleavage rate (min^-1); guide: L1MC piRNA 5'p-UAACUAAAUACUAUGCAAGCUGUAGG; MIWI and MILI are mouse PIWI proteins and EfPiwi is from a freshwater sponge; tags in brackets are library labels; higher = faster piRNA-guided slicing of the target. The conditions noted are these: auxiliary factor: 500 nM Ephydatia muelleri Gtsf1. An outline of the steps:
as §1

[3] abbreviates: auxiliary factor: 500 nM mouse GTSF1.
[4] abbreviates: auxiliary factor: none (no GTSF1).

Take UCCUGGAUGUGCUUGGAUAGUAUUAAGUUA: the “pre-steady-state target cleavage rate” value in assay [1] (setting [3]) was found to be 0.0897 ± 0.022; in assay [1] (setting [4]), 0.00634 ± 0.0041; in assay [2] it was 0.000392 ± 0.015.
On the same counts, the results for UCCUGGUACAGCUUCCAUAGUAUUUUGUUA are 0.00347 ± 0.0057, 0.00125 ± 0.0073 and 0.000831 ± 0.01.
For the sequence UCCUCGUACAGCUUGCAAAGUAUUUAGUUA, the “pre-steady-state target cleavage rate” value in assay [1] (setting [3]) is 1.32 ± 0.048; in assay [1] (setting [4]) it was 0.0595 ± 0.012; in assay [2], 0.143 ± 0.032.
On the same counts, the results for UCCUGGAUGUCGAUGCAAAGUAUUUAGUUA are 0.00227 ± 0.0043, 0.00121 ± 0.0058 and 0.00133 ± 0.0031.
On the same counts, the results for UCCUGGAUCAGCUUGCUAUGUAUUUAGAAA are 0.00203 ± 0.0047, 0.0013 ± 0.0025 and 0.000231 ± 0.013.
On the same counts, the results for UCCUGGUUCAGCUUGCAUAGUAUUUAGUAA are 0.528 ± 0.055, 0.0354 ± 0.008 and 0.00696 ± 0.0035.
For UCCUGGAUGUCGAAGCAUAGUAUUUAGGUUA, the “pre-steady-state target cleavage rate” value was determined as 0.00135 ± 0.0057 in assay [1] (setting [3]), 0.000733 ± 0.007 in assay [1] (setting [4]) and 0.000425 ± 0.0087 in assay [2].
The like results for UCCUGGAUGAGCUUGCAUAGUAUUUAGUAUA were, in that order, 0.702 ± 0.054, 0.0165 ± 0.0055 and 0.00301 ± 0.0034.
The like results for UCCUGGAUGUCGAACCCAUAGUAUUUAGUUA were, in that order, 0.00121 ± 0.0032, 0.00132 ± 0.0041 and 0.00191 ± 0.0045.
On the same counts, the results for UCCUGGAUGUCCUUGCAUAGAUUUUAGUUA are 0.00312 ± 0.0046, 0.00136 ± 0.0041 and 0.000296 ± 0.015.
Turning to UCCUGCUACAGCUUGCAUAGUAUUUUCAUA, the “pre-steady-state target cleavage rate” value was determined as 0.295 ± 0.055 in assay [1] (setting [3]), 0.00202 ± 0.0028 in assay [1] (setting [4]) and 0.00529 ± 0.0027 in assay [2].
In the case of UCCUGGAUGUCGAACGUAAGUUUAUAGUUA, the “pre-steady-state target cleavage rate” value in assay [1] (setting [3]) was determined as 0.000351 ± 0.018; in assay [1] (setting [4]) it was 0.000199 ± 0.027; in assay [2], 0.000122 ± 0.022.
On the same counts, the results for UCCUGGUACAGAUUGCAUAGUAUUUAGUUA are 0.58 ± 0.071, 0.0178 ± 0.0046 and 0.0131 ± 0.0038.
On the same counts, the results for UCCUGGAUGUCCUUGCAUAGUUAUUUAGUUA are 0.00343 ± 0.0047, 0.00177 ± 0.0053 and 0.00169 ± 0.0048.
Turning to UCCUGGAUGUCGUUGCAUAGUAUAUAGUUA, the results for the “pre-steady-state target cleavage rate” value in assay [1] (setting [3]), in assay [1] (setting [4]) and in assay [2] were 0.00163 ± 0.0056, 0.00154 ± 0.0047 and 0.00235 ± 0.0045, respectively.
For UCCUGGAUGUCGUUGCAUAGUAUUUAGUAUA, the “pre-steady-state target cleavage rate” value in assay [1] (setting [3]) came to 0.00137 ± 0.0077; in assay [1] (setting [4]), 0.00302 ± 0.0033; in assay [2] it was 0.000521 ± 0.0088.
The like results for UCCUGGAUGUCGAAGCAUGGUAUUUAGUUA were, in that order, 0.00323 ± 0.0036, 0.0014 ± 0.0044 and 0.00117 ± 0.0056.
In the case of UCCUGGAUGUGCUUGCAUAGGUAUUUAGUUA, the “pre-steady-state target cleavage rate” value in assay [1] (setting [3]) turned out to be 0.00184 ± 0.0077; in assay [1] (setting [4]), 0.00161 ± 0.0069; in assay [2], 0.000803 ± 0.0063.
The like results for UCCUGCUACAGCUCUGCAUAGUAUUUAGUUA were, in that order, 0.851 ± 0.058, 0.0138 ± 0.003 and 0.0151 ± 0.0038.
The like results for UCCUGCUACAGCUUGCAUAGUAUAUUGUUA were, in that order, 0.377 ± 0.037, 0.0123 ± 0.0026 and 0.00351 ± 0.0021.
The like results for UCCUGGAUGUGCUUUGCAUAGUAUUUAGUUA were, in that order, 0.251 ± 0.022, 0.0142 ± 0.0043 and 0.00805 ± 0.003.
With UCCUGGAUGAGCUUGCAUAGUUAAUAGUAA, the “pre-steady-state target cleavage rate” value was 0.00195 ± 0.0053 in assay [1] (setting [3]), 0.0014 ± 0.0053 in assay [1] (setting [4]) and 0.000306 ± 0.018 in assay [2].
On the same counts, the results for UCCUCCUACAGCAUGGAUAGUAUUUAGUUA are 1.38 ± 0.067, 0.0219 ± 0.0037 and 0.096 ± 0.023.
